Test results published in EP2519511B1, “NOVEL PIPERINE DERIVATIVES AS GABA-A RECEPTORS MODULATORS” (Universität Wien, priority 2009, dated 2011).
For at least one compound, name, drawing or mass did not settle the structure.

Tests used:
[1] = test system: Male mice (C57BI/6N); test: Elevated Plus Maze test (EPM); format: in vivo; settings: i.p.; compared to control
Experimental: (§1) Piperine was isolated from Piper nigrum as described by Zaugg et al. (2010) and obtained from SigmaAldrich (Vienna, Austria), respectively. Piperine derivatives were synthesized as described above. Stock solutions (1mg/10 µl) were prepared in DMSO (Dimethyl Sulfoxide, Sigma, Austria).Working concentrations were adjusted by dilution with 0.9% sodiumchloride. pH was adjusted to 7.2-7.4 with NaOH. For better solubility 3% of Tween80 was added to all solutions. All solutions were freshly prepared every day prior to experiments. Care was taken for equal amounts of DMSO in the actein and control solutions.
(§2) Male mice (C57BI/6N) were obtained from Charles River Laboratories (Germany). For breeding and maintenance mice were group housed with free access to food and water. Temperature was fixed to 23±1 °C and 60% humidity with a 12 h light-dark cycle (lights on 0700-1900 hours). Male mice at 3-6 months age were tested in all experiments. Every effort was taken to minimize the number of animals used (Khom et al., 2010).
The animals's behavior was tested over 5 min on an elevated plus maze 1 m above ground consisting of two closed and two open arms, each 50x5 cm in size (Khom et al., 2010). The test instrument was built from gray PVC; the height of closed arm walls was 20 cm. Illumination was set to 180 lux. Animals were placed in the center, facing an open arm. […]

[2] = test system: Male mice (C57BI/6N); test: Open Field test (OF); format: in vivo
Experimental: as §1, §2
Ambulation was tested over 10 min in a 50x50 cm flexfield box equipped with infrared rearing detection. Illumination was set to 150 lux. Animals were video monitored and their explorative behavior was analyzed using the Actimot 2 equipment and software (TSE-systems, Bad Homburg, Germany). […]

[3] = test system: PTZ-induced seizures; test: Seizure threshold by PTZ tail-vein infusion; format: in vivo, mice
Experimental: as §1, §2
Seizure threshold was determined by PTZ tail-vein infusion on freely moving animals at a rate of 100 µl/min ([…] PTZ in saline, pH 7.4). […] Animals were immediately killed by cervical displacement after the first generalized seizure. The seizure threshold dose was calculated from the infused volume in relation to body weight (Loacker et al. 2007). […]

[4] = target: benzodiazepine binding site; settings: reported by Pedersen et al. (2009); cited from earlier work

Q: With `O=C(/C=C/C=C/c1ccc2c(c1)OCO2)N1CCCCC1` [piperine, Piperine] as the molecule, how does the “total distance travelled in the EPM” value [1] read?
A: a trend towards a slightly reduced distance

Q: And the “effect on total ambulation” value ([2]; 10 mg/kg bodyweight, 30 min after i.p. injection, Fig. 11A)?
A: reduction of the total distance

Q: And the “ambulation compared to control animals” value ([2]; all doses studied, Fig. 6)?
A: less ambulation compared to control animals

Q: What about the seizure threshold ([3]; 1 mg/kg bodyweight) of the same molecule?
A: increased thresholds

Q: What about the seizure threshold ([3]; doses below 3 mg/kg) of the same molecule?
A: did not affect seizure threshold

Q: What about the IC50 [4] of the same molecule?
A: 1200 µM
